Data reported in the supplement of paper PMC3334620.
Whole data set: some 33,000 sequences, median “E-score (-0.5 to 0.5)” near -0.016, cut for the highest 2% near 0.3. The list shows a part of the results.

Target: T1, Yer184c (UniProt P39961)
T1 sequence: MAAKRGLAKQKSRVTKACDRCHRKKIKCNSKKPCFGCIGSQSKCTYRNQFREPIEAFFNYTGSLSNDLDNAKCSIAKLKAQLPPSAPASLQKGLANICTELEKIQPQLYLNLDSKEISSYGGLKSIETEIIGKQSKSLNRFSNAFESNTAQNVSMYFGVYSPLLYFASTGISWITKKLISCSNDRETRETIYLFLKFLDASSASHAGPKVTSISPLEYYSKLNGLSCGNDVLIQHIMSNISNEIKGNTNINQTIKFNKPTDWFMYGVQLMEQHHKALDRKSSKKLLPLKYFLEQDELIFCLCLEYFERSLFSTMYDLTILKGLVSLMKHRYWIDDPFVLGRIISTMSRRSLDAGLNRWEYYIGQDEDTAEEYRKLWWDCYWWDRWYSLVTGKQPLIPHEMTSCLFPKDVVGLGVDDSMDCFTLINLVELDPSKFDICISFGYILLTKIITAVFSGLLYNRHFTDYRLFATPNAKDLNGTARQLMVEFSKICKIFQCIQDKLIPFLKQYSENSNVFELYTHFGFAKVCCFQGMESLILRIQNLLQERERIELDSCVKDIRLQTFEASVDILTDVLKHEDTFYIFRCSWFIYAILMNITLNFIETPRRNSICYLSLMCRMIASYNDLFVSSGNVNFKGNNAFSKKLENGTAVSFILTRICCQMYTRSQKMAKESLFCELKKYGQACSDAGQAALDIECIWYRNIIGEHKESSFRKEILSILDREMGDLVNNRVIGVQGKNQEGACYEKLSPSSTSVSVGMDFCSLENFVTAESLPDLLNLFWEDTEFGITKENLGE
Experiment: PBM E-score (8-mer binding enrichment) (E-score (-0.5 to 0.5)); higher = stronger / more preferred TF binding
Settings: protein concentration: 100 nM; construct: GST-full length
Outline: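 Full-length yeast transcription factors or their DNA-binding domains, GST-tagged and expressed with PURExpress, were applied at about 100-200 nM to universal all-10-mer Agilent arrays. These arrays had been made double-stranded by primer extension on fresh or once-stripped slides. Detection used fluorescent anti-GST, normalisation used masliner, and E-scores for ungapped eight-base words pooled with reverse complements came from the Universal PBM Analysis Suite.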

Row | Sequence | PBM E-score
1 | CGTTAAAA | 0.00552
2 | CGGGTAAG | -0.0605
3 | ACTATCCC | -0.28
4 | ACCCCCGG | -0.0667
5 | GGAACACA | 0.0766
6 | AAGAGCGC | -0.00569
7 | CGGCCGTC | 0.278
8 | CATCCGAA | 0.338
9 | CACTGCCC | -0.127
10 | AGGCGGCG | -0.069
11 | AAAGCGGA | 0.0673
12 | GCACCTCC | -0.191
13 | CTTGGAGC | -0.259
14 | CATGGAGC | -0.175
15 | GCCGTATA | 0.293
16 | CCGCATAA | 0.224
17 | CCAAGAAG | -0.166
18 | AAATCTTA | 0.106
19 | CTTTCGTC | -0.0387
20 | CTGACATA | 0.0194
21 | ACTATTCG | 0.0869
22 | CGGCACTA | 0.275
23 | ACAGTAGC | -0.0134
24 | GATTGCAA | 0.0613
25 | AGATGCGC | -0.0784

Row | Sequence | PBM E-score
26 | CGAACTAC | 0.0997
27 | ACTATAAC | -0.0771
28 | AGAGGTCC | 0.14
29 | CTGAGAGC | -0.129
30 | GCCGACGA | 0.194
31 | ACGTAGAC | -0.3
32 | CGATTCGC | 0.166
33 | AGAAAAGC | 0.0636
34 | GACGAGAA | 0.138
35 | GGCGCACA | -0.0598
36 | CGTAAAGC | -0.157
37 | TAATATCA | 0.245
38 | ATCTTACA | 0.031
39 | CTCATCCA | -0.0545
40 | TTGGGAAA | 0.153
41 | CCCGGTAG | 0.115
42 | ACCGAGCC | 0.221
43 | CCAATCGG | 0.0763
44 | TACTAGGA | 0.0796
45 | AGGACACT | -0.209
46 | GACTGGCA | -0.226
47 | AGCAATCG | -0.0197
48 | CAATTGGG | -0.124
49 | AGGATTGA | 0.12
50 | CTGGGCGC | -0.284

Row | Sequence | PBM E-score
51 | ACCCAATC | -0.00791
52 | AGAACCAA | -0.034
53 | ATGGCCGG | 0.215
54 | CCCGCTCA | -0.141
55 | AGAAGGAG | -0.293
56 | GAGTGATA | 0.0635
57 | AACGCCAA | -0.0338
58 | CATTCCAG | -0.119
59 | GGAACCCA | 0.0157
60 | AGTGTGGC | -0.0838
61 | ATGTGGCC | -0.0771
62 | CTCTCTGA | -0.111
63 | CTAACCGA | 0.206
64 | CATTGTTA | 0.0974
65 | CCTTCGCG | -0.0224
66 | CGCATGGA | -0.166
67 | CATTATGG | -0.215
68 | ATCTTGTC | 0.0338
69 | ATACGGTC | -0.0326
70 | ATTGCGCA | -0.0497
71 | ATTGGTTC | 0.197
72 | GGACTCGA | -0.205
73 | TACCACGA | 0.0393
74 | CGAAGCTC | 0.0346
75 | CAAAACCG | 0.116

Row | Sequence | PBM E-score
76 | GATCGAGA | 0.0688
77 | AGACAGAG | -0.0872
78 | ATGCAGCC | 0.131
79 | CGGAATGA | 0.233
80 | AAGCGAGG | -0.0843
81 | CGACACAC | 0.0942
82 | AGGGAAAT | -0.166
83 | CGGCAACC | 0.272
84 | ACTACTTC | 0.0106
85 | CAGTCTAC | -0.179
86 | GATATATA | 0.349
87 | CGCTATGC | -0.174
88 | TGCTCTAA | -0.0827
89 | AGGCGCAG | -0.296
90 | GGCTTCTA | -0.0763
91 | ACACCACC | -0.207
92 | GCCATTCC | 0.00305
93 | ATTCTGTG | 0.165
94 | GACCGCTA | 0.0247
95 | TAACATAA | 0.174
96 | CCTTCATC | -0.106
97 | GGTATAAA | 0.16
98 | GAATGCTA | -0.0261
99 | GGTACCTA | -0.172
100 | CGATTAGA | 0.069

Row | Sequence | PBM E-score
101 | CCCACAGA | -0.227
102 | GTGGTGGA | -0.0431
103 | CGGATAGA | 0.338
104 | ATCAGATA | -0.0582
105 | AGACTAGG | -0.164
106 | ATCTTAGG | -0.148
107 | AACCTCGT | 0.00542
108 | CAAGCGTG | -0.139
109 | TCTATACA | -0.0576
110 | GACTAAAC | -0.117
111 | CGACTGAA | -0.0482
112 | CTGTACTC | -0.18
113 | ACCCCCCA | -0.319
114 | CGCTCCGA | 0.111
115 | ACAATGGA | 0.226
116 | ACGCTTCC | 0.0165
117 | GAAAGATA | 0.00057
118 | GGTGGCCA | -0.217
119 | AATCCGAC | 0.182
120 | CGTACTAA | 0.0418
121 | AGTGGGCG | 0.0139
122 | ACGGATAC | 0.266
123 | CACCAGCC | -0.119
124 | CTTTGACA | 0.128
125 | GGGCCATA | 0.115

Row | Sequence | PBM E-score
126 | CTTCGCAA | -0.0597
127 | TATAGCGA | -0.107
128 | AAACATGA | 0.146
129 | TCTCTTAA | 0.126
130 | ACCGGTAG | 0.0373
131 | GATGGGTA | -0.064
132 | AAAGTGGC | -0.191
133 | ATCAGGTC | -0.114
134 | GCTCATAA | 0.0613
135 | AATAATCG | 0.0241
136 | AGTGTCCC | 0.036
137 | CCGTCCCA | -0.129
138 | ATGATAAT | 0.129
139 | ATGCTCGA | -0.0483
140 | GGCCTGGA | -0.213
141 | CACAAGTC | -0.186
142 | AGCTTTAC | -0.0634
143 | AGGAAGAA | -0.158
144 | GAAAGAAC | 0.138
145 | ACGGGGAC | -0.14
146 | CGTTGACA | -0.0766
147 | GCCCAGCA | 0.0142
148 | AGTGAGAG | -0.209
149 | CAGAGACG | 0.0363
150 | ACTACCAA | -0.00394

Row | Sequence | PBM E-score
151 | AGATAACC | -0.06
152 | ACCGCGGA | 0.314
153 | ATCTTCCA | -0.114
154 | CGGTTGTC | 0.208
155 | GCGACTAA | 0.0914
156 | ATATCTAC | 0.102
157 | GCCTGTAA | -0.0307
158 | ATTACCTA | 0.11
159 | AGCTCGAC | 0.0731
160 | CCCAGGCC | -0.0855
161 | AGTTATAG | 0.0168
162 | CTTGGCAC | -0.0814
163 | GCCAGAAC | -0.044
164 | ACGTTTGA | 0.0158
165 | CGGGTAGC | 0.122
166 | ATATAGCC | 0.0726
167 | CTTGGCCA | -0.109
168 | AGTTTTAC | 0.0637
169 | CGCGTTGC | 0.16
170 | CTTGACCA | -0.139
171 | ATGGCACC | -0.199
172 | CGGGTGCC | 0.0953
173 | TGTTTGAA | 0.177
174 | AGAATTCG | 0.109
175 | GGGGGTCA | -0.31

Row | Sequence | PBM E-score
176 | ACGTGGTG | -0.255
177 | GAACCAGA | -0.0507
178 | GGCCCCGA | -0.024
179 | CAAGTTCC | 0.0076
180 | AGATAGAG | 0.0567
181 | CAGTTGAA | -0.104
182 | ACGCATCA | 0.0721
183 | ACTGTAAC | -0.0895
184 | AAGTAGCG | -0.0985
185 | CGGTCAAG | 0.13
186 | AAACACTA | 0.148
187 | GTATACCA | -0.0258
188 | AAAAGGGA | -0.127
189 | CGGCTAAA | 0.327
190 | GACGCGTC | -0.178
191 | AAAAAGAT | 0.164
192 | AGGAAGTA | 0.0741
193 | CTCCCCGC | 0.0142
194 | AACATGCG | -0.0405
195 | CCTAACGA | -0.00444
196 | GTTCCGTA | 0.276
197 | ACTAGAAG | 0.0145
198 | AGGATGCG | -0.123
199 | CGTAGAGA | -0.0444
200 | CTCGCCGC | -0.0197

Part of the list above, set out differently.

| Row | Sequence | PBM E-score |
| --- | --- | --- |
| 159 | AGCTCGAC | 0.0731 |
| 160 | CCCAGGCC | -0.0855 |
| 161 | AGTTATAG | 0.0168 |
| 162 | CTTGGCAC | -0.0814 |
| 163 | GCCAGAAC | -0.044 |
| 164 | ACGTTTGA | 0.0158 |
| 165 | CGGGTAGC | 0.122 |
| 166 | ATATAGCC | 0.0726 |
| 167 | CTTGGCCA | -0.109 |
| 168 | AGTTTTAC | 0.0637 |
| 169 | CGCGTTGC | 0.16 |
| 170 | CTTGACCA | -0.139 |
| 171 | ATGGCACC | -0.199 |
| 172 | CGGGTGCC | 0.0953 |
| 173 | TGTTTGAA | 0.177 |
| 174 | AGAATTCG | 0.109 |
| 176 | ACGTGGTG | -0.255 |
| 178 | GGCCCCGA | -0.024 |
| 179 | CAAGTTCC | 0.0076 |
| 180 | AGATAGAG | 0.0567 |
| 181 | CAGTTGAA | -0.104 |
| 182 | ACGCATCA | 0.0721 |
| 183 | ACTGTAAC | -0.0895 |
| 184 | AAGTAGCG | -0.0985 |
| 185 | CGGTCAAG | 0.13 |
| 186 | AAACACTA | 0.148 |
| 187 | GTATACCA | -0.0258 |
| 188 | AAAAGGGA | -0.127 |
| 189 | CGGCTAAA | 0.327 |
| 190 | GACGCGTC | -0.178 |
| 191 | AAAAAGAT | 0.164 |
| 192 | AGGAAGTA | 0.0741 |
| 194 | AACATGCG | -0.0405 |
| 195 | CCTAACGA | -0.00444 |
| 196 | GTTCCGTA | 0.276 |
| 197 | ACTAGAAG | 0.0145 |
| 198 | AGGATGCG | -0.123 |
| 199 | CGTAGAGA | -0.0444 |
| 200 | CTCGCCGC | -0.0197 |

(continued)

Row | Sequence | PBM E-score
201 | AACCCGAG | 0.122
202 | CGATATAC | -0.0299
203 | GGTCCCTA | -0.184
204 | ACCGGAGA | 0.33
205 | CTGTCGTA | -0.0891
206 | GCCCTCAA | -0.232
207 | CCGAAGAC | 0.202
208 | CGCGTTGA | -0.00366
209 | CTCTAGCC | -0.0843
210 | ATCCAGGC | -0.188
211 | GGAAGCCC | 0.0509
212 | ACCTTTAT | -0.139
213 | CTGGGTTC | 0.0288
214 | AGGAGACA | 0.0183
215 | GTAAGAGA | -0.0957
216 | GCGTACCC | -0.219
217 | CAATTCGC | 0.281
218 | GCATCGGC | 0.176
219 | GGCGGAGA | 0.195
